Source: patent US12552747B2, “Amino acid derivative containing non-steroidal anti-inflammatory drug structure and preparation method and application thereof” (priority 2020, dated 2026)

Legend:
[1] = Therapeutic index (MHC / mean IC50); details: for TI: ratio of MHC to mean IC50; for TI (fold conversion): relative to PL-AC-15
SK-hep1 liver tumors = assay: Transplanted tumor in nude mice, intraperitoneal, SK-hep1; format: in vivo; details: SK-hep1 tumor-bearing BALB/c mice, 5 mg/kg group
Description: BALB/c nude mice were used to inoculate Bel-7402, HepG-2 and SK-hep1 liver tumors according to the transplanted tumor research method under aseptic operation, and the cell density was not less than 5×10^6/ml, 0.2 ml was inoculated subcutaneously in the axilla of the right hind limb of each mouse. After the cells were inoculated, the cells were administered intraperitoneally (concentration: 5 mg/kg), once every 3 days, for a total of 8 administrations. After the 2nd day of drug withdrawal, all tumor-bearing mice were sacrificed, and their body weight, tumor weight and tumor inhibition were weighed.

Row | Structure (SMILES) | TI [1] | Body Weight Before administration (SK-hep1 liver tumors) [g] | TI (fold conversion) [1]
1 | CC1(C)CC(NC(=O)C(Cc2ccc(-c3ccccc3)cc2)NC(=O)Cc2ccccc2Nc2c(Cl)cccc2Cl)CC(C)(C)N1 (stereo not shown) [PL-AC-203] | 110043.4 |  | 
2 | COc1ccc2cc(C(C)C(=O)NC(Cc3ccc(-c4ccccc4)cc3)C(=O)NC3CC(C)(C)NC(C)(C)C3)ccc2c1 (stereo not shown) [PL-AC-202] | 211563.8 |  | 
3 | CC1(C)CC(NC(=O)C(Cc2ccc(-c3ccccc3)cc2)NC(=O)c2cc3ccccc3n2Cc2ccccc2)CC(C)(C)N1 (stereo not shown) [PL-AC-15, reference compound] | 50983.88 | 18.9 ± 0.7 | 1
4 | COc1ccc2c(c1)c(CC(=O)NC(Cc1ccc(-c3ccccc3)cc1)C(=O)NC1CC(C)(C)NC(C)(C)C1)c(C)n2C(=O)c1ccc(Cl)cc1 (stereo not shown) [PL-AC-205] | 165149.4 | 19.0 ± 1.7 | 3
5 | CC(=O)Oc1ccccc1C(=O)NC(Cc1ccc(-c2ccccc2)cc1)C(=O)NC1CC(C)(C)NC(C)(C)C1 (stereo not shown) [PL-AC-201] | 206758.2 | 19.1 ± 1.4 | 4
6 | C/C(=C1/c2ccc(F)cc2C(CC(=O)NC(Cc2ccc(-c3ccccc3)cc2)C(=O)NC2CC(C)(C)NC(C)(C)C2)C1C)c1ccc([S+](C)[O-])cc1 (stereo not shown) [PL-AC-204] | 145732.3 |  | 3
